Here are results for one molecule from US20030105024A1 (STATE OF OREGON, published 2003).

By UniProt entry, the sequences of proteins in these tests, tags left out. Where a name states a change or a piece, a line headed by the entry shows the natural chain unless it says otherwise.
UniProt P01189: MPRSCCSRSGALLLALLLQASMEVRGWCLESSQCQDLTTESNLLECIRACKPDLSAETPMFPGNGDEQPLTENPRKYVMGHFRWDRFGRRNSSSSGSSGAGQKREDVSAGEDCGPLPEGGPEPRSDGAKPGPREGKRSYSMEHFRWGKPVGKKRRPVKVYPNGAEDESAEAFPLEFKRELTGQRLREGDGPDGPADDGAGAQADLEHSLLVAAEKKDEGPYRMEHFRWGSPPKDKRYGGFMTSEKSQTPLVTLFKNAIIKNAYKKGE

The target in this assay is T1, rat melanocortin-3 receptor (rat, UniProt P32244 1-323).
T1 chain: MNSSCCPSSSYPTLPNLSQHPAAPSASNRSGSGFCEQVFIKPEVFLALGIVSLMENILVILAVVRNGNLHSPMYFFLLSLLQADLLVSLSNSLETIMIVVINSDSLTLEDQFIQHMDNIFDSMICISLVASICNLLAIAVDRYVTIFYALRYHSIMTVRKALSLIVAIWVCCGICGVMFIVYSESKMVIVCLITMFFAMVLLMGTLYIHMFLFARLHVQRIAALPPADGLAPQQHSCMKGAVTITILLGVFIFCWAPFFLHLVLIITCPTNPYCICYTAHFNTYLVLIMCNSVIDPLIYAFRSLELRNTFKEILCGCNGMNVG
Nature of the assay: relative order of potency, competition with 125I-NDP-MSH on cells expressing rat MC-3 receptor.

Results are given in words; binding and its absence hold for the method and conditions named. Some binding calls cover weakened binding; strength is not graded here.

B1: γ-melanocyte stimulating hormone (peptide, UniProt P01189 77-88, looked up)
peptide: YVMGHFRWDRFG
notes: domain: γMSH; Printed without an index; also called γMSH; γ-MSH
B1: the binding entry is “binds”.
